Values from PubChem BioAssay AID504804 (Drosophila RNAi Screening Center, 2011).
Assay: 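Fly genes whose loss lessens doxorubicin-driven cell death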 (primary screen). Cell system: Drosophila Kc cells. Reagent: long dsRNA against Drosophila genes, 0.5 µg dsRNA per well. Timing: 96 h (48 h knock-down, then 48 h drug). Conditions: doxorubicin 5 µg/ml for 48 h, added 48 h after dsRNA. Measurement: 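Viability measured as cellular ATP by luminescence after 48 h knock-down then 48 h doxorubicin at 5 µg/ml; unnormalised plate counts for each replicate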. Scale: raw ATP luminescence: higher = more viable cells, protection from doxorubicin. Call rule: 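Active when both duplicate wells lie at least 2 SD above the plate mean and protection is confirmed by rescreening and independent dsRNAs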.
The deposit covers about 19,000 reagents; this is a random part of those with a known target gene and a result. Of all reagents, 47 (0.25%) were called active. 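Signals are raw, not normalised; exact z-scores behind calls not deposited; actives needed confirmation, so some wells reaching 2 SD are inactive.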 A plus sign joins genes that one reagent is predicted to hit.

The opening 3 entries, ahead of the listing:
| Target gene | amplicon | raw ATP luminescence, replicate 1 | raw ATP luminescence, replicate 2 | call |
| --- | --- | --- | --- | --- |
| CG11145 | DRSC06049 | 48560 | 65410 | inactive |
| cv-c (crossveinless c) | DRSC14969 | 70260 | 61400 | inactive |
| cv-c (crossveinless c) | DRSC14970 | 70650 | 69600 | inactive |

Results, from the start:
| Target gene | amplicon | raw ATP luminescence, replicate 1 | raw ATP luminescence, replicate 2 | call |
| --- | --- | --- | --- | --- |
| CG11145 | DRSC06049 | 48560 | 65410 | inactive |
| cv-c (crossveinless c) | DRSC14969 | 70260 | 61400 | inactive |
| cv-c (crossveinless c) | DRSC14970 | 70650 | 69600 | inactive |
| cv-c (crossveinless c) | DRSC14971 | 32420 | 28660 | inactive |
| cv-c (crossveinless c) | DRSC14972 | 81270 | 59830 | inactive |
| cv-c (crossveinless c) | DRSC14973 | 35800 | 29450 | inactive |
| cv-c (crossveinless c) | DRSC16428 | 62920 | 64570 | inactive |
| ltl (larval translucida) | DRSC10206 | 86103 | 81497 | inactive |
| ltl (larval translucida) | DRSC10870 | 91753 | 91163 | inactive |
| CG31473 | DRSC15443 | 61003 | 78803 | inactive |
| CG3603 | DRSC18317 | 52060 | 57610 | inactive |
| Unr (Upstream of N-ras) | DRSC10761 | 55553 | 38543 | inactive |
| Tengl4 (Testis EndoG-Like 4) | DRSC15620 | 42800 | 47607 | inactive |
| CG5762 | DRSC15869 | 52597 | 57940 | inactive |
| CG10098 | DRSC12509 | 52960 | 21607 | inactive |
| CG14006 | DRSC02338 | 45683 | 40390 | inactive |
| Sras (severas) | DRSC11287 | 75367 | 95010 | inactive |
| yellow-e2 | DRSC15169 | 88130 | 76480 | inactive |
| tara (taranis) | DRSC17076 | 52430 | 50560 | inactive |
| Pxt (Peroxinectin-like) | DRSC17040 | 41590 | 29660 | inactive |
| Ttd14 (TRPL translocation defect 14) | DRSC06632 | 58540 | 54420 | inactive |
| CG10383 | DRSC02050 | 79047 | 56623 | inactive |
| CG42372 + CG30100 | DRSC05602 | 1.13e5 | 1.09e5 | inactive |
| Rh2 (Rhodopsin 2) | DRSC16821 | 38140 | 36940 | inactive |
| TMEM216 + CG11760 | DRSC14375 | 71443 | 36823 | inactive |
| CCT8 (Chaperonin containing TCP1 subunit 8) | DRSC07130 | 69043 | 56657 | inactive |
| ND2 (retired record) | DRSC21274 | 3.49e5 | 3.01e5 | inactive |
| eEFSec | DRSC04571 | 56950 | 64970 | inactive |
| bard | DRSC14796 | 52190 | 64790 | inactive |
| lncRNA:sphinx (long non-coding RNA:sphinx) | DRSC17199 | 45100 | 57390 | inactive |
| RpL10Ab (Ribosomal protein L10Ab) | DRSC10798 | 58150 | 59403 | inactive |
| CG34367 | DRSC02238 | 38830 | 86497 | inactive |
| CG34367 | DRSC02850 | 42200 | 93210 | inactive |
| melt (melted) | DRSC11367 | 66730 | 79510 | inactive |
